Experimental data reported in patent US6740662B1, “Naphthyridine derivatives” (Yamanouchi Pharmaceutical Co., Ltd., priority 1999, dated 2004).
Structures can show the parent of a compound that is named as a salt. Some entries share one result that the patent states for a list of compounds.

These compounds were tested on type IV PDE (assay: Type IV PDE inhibitory activity). Details: type IV PDE purified from rat ventricle muscle; 1 μM cAMP, 30° C., 10 minutes.
Assay type: biochemical
With CCn1c(=O)c(CCC(=O)O)c(C2CCCCC2)c2ccc(C)nc21 [Example 47, 3-(4-cyclohexyl-1-ethyl-7-methyl-2-oxo-1,2-dihydro-1,8-naphthyridin-3-yl)propanoic acid] the IC50 was ≤ 11 nM. CCn1c(=O)c(CCc2nnn[nH]2)c(C2CCCCC2)c2ccc(C)nc21 [Example 79] was tested, and the IC50 was ≤ 11 nM. With CCn1c(=O)c(-c2cccc(C(=O)O)c2)c(-c2cccc(Cl)c2)c2ccc(C)nc21 [Example 21, 3-[4-(3-chlorophenyl)-1-ethyl-7-methyl-2-oxo-1,2-dihydro-1,8-naphthyridin-3-yl]benzoic acid] the IC50 was ≤ 11 nM. With CCn1c(=O)c(CCC(=O)O)c(-c2cccs2)c2ccc(C)nc21 [Example 78] the IC50 was ≤ 11 nM. With CCn1c(=O)c(CCN2CCC(C(=O)O)CC2)c(-c2cccc(Cl)c2)c2ccc(C)nc21 [Example 38, 1-{2-[4-(3-chlorophenyl)-1-ethyl-7-methyl-2-oxo-1,2-dihydro-1,8-naphthyridin-3-yl]ethyl}piperidine-4-carboxylic acid] the IC50 was ≤ 11 nM. With CCn1c(=O)c(C2CCNCC2)c(-c2cccc(Cl)c2)c2ccc(C)nc21 [Example 28, 4-(3-chlorophenyl)-1-ethyl-7-methyl-3-(piperidin-4-yl)-1,8-naphthyridin-2(1H)-one monofumarate] the IC50 was ≤ 11 nM. In the case of CCn1c(=O)c(CCCO)c(-c2cccc(Cl)c2)c2ccc(C)nc21 [Example 16, 4-(3-chlorophenyl)-1-ethyl-3-(3-hydroxypropyl)-7-methyl-1,8-naphthyridin-2(1H)-one], the IC50 is reported as ≤ 11 nM. For CCn1c(=O)c(CCNC(=N)N)c(-c2cccc(Cl)c2)c2ccc(C)nc21 [Example 39, 4-(3-chlorophenyl)-1-ethyl-3-(2-guanidinoethyl)-7-methyl-1,8-naphthyridin-2(1H)-one monohydrochloride monohydrate], the IC50 was ≤ 11 nM. In the case of CCn1c(=O)c(CCC(=O)O)c(-c2cccc(Cl)c2)c2ccc(Cl)nc21 [Example 41, 3-[7-chloro-4-(3-chlorophenyl)-1-ethyl-2-oxo-1,2-dihydro-1,8-naphthyridin-3-yl]propanoic acid], the IC50 is reported as ≤ 11 nM. With CCn1c(=O)c(CCC(=O)O)c(-c2cccc(Cl)c2)c2ccc(C)nc21 [Example 2, 3-[4-(3-chlorophenyl)-1-ethyl-7-methyl-2-oxo-1,2-dihydro-1,8-naphthyridin-3-yl]propanoic acid] the IC50 was ≤ 11 nM. In the case of CCn1c(=O)c(CCCc2nnn[nH]2)c(-c2cccc(Cl)c2)c2ccc(C)nc21 [Example 70, 4-(3-chlorophenyl)-1-ethyl-7-methyl-3-[3-(1H-tetrazol-5-yl)propyl]-1,8-naphthyridin-2(1H)-one], the IC50 is reported as ≤ 11 nM. In the case of CCn1c(=O)c(CCC(=N)N)c(-c2cccc(Cl)c2)c2ccc(C)nc21 [Example 40, 3-(2-amidinoethyl)-4-(3-chlorophenyl)-1-ethyl-7-methyl-1,8-naphthyridin-2(1H)-one monohydrochloride], the IC50 is reported as ≤ 11 nM. CCn1c(=O)c(CCC(=O)O)c(-c2cccc(Cl)c2)c2ccc(C=NO)nc21 [Example 43, 3-[4-(3-chlorophenyl)-1-ethyl-7-hydroxyiminomethyl-2-oxo-1,2-dihydro-1,8-naphthyridin-3-yl]propanoic acid] was tested, and the IC50 was ≤ 11 nM. With CCn1c(=O)c(CCCC(=O)O)c(-c2cccc(Cl)c2)c2ccc(C)nc21 [Example 61, 4-[4-(3-chlorophenyl)-1-ethyl-7-methyl-2-oxo-1,2-dihydro-1,8-naphthyridin-3-yl]butanoic acid] the IC50 was ≤ 11 nM. CCn1c(=O)c(CCc2nnn[nH]2)c(-c2cccc(Br)c2)c2ccc(C)nc21 [Example 80] was tested, and the IC50 was ≤ 11 nM.
